Assay results from doi:10.1101/2024.10.14.618148.
No constants are given. Whether binding was seen depends on the method and setting. Some binding calls cover weakened binding; strength is not graded here. Blank lines part the entries; values can stand above or below the binder they belong to.

Experiments:
[1] = biological target: T1, mouse Xpf (full length) (mouse) (UniProt Q9QZD4); test: co-purification
T1 sequence: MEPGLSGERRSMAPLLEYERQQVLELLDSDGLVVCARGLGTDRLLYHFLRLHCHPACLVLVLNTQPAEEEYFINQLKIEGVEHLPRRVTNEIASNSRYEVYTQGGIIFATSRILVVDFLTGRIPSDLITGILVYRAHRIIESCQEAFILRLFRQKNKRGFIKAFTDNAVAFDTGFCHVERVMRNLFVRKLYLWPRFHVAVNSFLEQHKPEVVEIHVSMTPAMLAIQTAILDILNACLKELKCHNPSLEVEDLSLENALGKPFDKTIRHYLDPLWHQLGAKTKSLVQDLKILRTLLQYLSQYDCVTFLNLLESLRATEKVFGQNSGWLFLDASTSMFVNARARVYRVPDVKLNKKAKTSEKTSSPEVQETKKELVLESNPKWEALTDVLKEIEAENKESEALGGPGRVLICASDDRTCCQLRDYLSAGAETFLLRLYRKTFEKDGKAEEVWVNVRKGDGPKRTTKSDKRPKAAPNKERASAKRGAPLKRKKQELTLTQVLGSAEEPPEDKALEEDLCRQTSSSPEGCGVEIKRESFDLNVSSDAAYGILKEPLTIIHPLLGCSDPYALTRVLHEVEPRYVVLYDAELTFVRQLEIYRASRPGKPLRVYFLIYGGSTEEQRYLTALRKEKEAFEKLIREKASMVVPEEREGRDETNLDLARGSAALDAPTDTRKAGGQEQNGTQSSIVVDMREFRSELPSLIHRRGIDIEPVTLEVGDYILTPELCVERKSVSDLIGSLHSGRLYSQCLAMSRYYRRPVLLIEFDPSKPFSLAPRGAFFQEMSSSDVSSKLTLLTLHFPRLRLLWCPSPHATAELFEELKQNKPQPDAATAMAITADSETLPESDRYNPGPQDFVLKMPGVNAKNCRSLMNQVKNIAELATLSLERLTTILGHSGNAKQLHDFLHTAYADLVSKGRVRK

[2] = biological target: T2, mouse Slx4(1–758) (mouse) (UniProt Q6P1D7); test: co-purification
T2 sequence: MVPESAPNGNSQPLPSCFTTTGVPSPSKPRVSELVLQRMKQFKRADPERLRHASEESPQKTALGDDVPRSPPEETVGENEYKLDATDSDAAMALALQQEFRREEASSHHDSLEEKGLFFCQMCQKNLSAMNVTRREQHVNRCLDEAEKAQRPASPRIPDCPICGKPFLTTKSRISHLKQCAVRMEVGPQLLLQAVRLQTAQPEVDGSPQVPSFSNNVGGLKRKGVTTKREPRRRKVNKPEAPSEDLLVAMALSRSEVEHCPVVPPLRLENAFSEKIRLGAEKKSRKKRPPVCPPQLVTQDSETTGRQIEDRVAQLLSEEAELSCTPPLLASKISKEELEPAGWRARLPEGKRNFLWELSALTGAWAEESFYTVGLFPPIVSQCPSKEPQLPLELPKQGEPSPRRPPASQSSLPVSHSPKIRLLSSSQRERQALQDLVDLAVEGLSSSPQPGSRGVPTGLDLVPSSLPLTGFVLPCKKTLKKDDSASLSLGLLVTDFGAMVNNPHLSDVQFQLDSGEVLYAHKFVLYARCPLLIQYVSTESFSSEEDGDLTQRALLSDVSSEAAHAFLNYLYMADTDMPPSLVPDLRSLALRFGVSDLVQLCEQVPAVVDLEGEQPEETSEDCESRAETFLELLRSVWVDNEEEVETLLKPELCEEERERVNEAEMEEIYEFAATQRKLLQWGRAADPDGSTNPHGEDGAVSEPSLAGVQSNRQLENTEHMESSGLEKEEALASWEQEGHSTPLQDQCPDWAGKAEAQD

- binding [1]: binds
- binding [2]: binds
B1: mouse Ercc1 (HT-3C-Full length) (protein, UniProt P07903 1-298)
chain: MDPGKDEESRPQPSGPPTRRKFVIPLEEEEVPCAGVKPLFRSSRNPTIPATSAHVAPQTYAEYAITQPPGGAGATVPTGSEPAAGENPSQTLKTGAKSNSIIVSPRQRGNPVLKFVRNVPWEFGEVIPDYVLGQSTCALFLSLRYHNLHPDYIHERLQSLGKNFALRVLLVQVDVKDPQQALKELAKMCILADCTLVLAWSAEEAGRYLETYKAYEQKPADLLMEKLEQNFLSRATECLTTVKSVNKTDSQTLLATFGSLEQLFTASREDLALCPGLGPQKARRLFEVLHEPFLKVPR

- binding [2]: binds
B2: mouse Xpf (full length) (enzyme, UniProt Q9QZD4 1-917)
chain: T1 sequence
